{"source": "patent US5162499A", "about": "(Heterocyclic Research, Inc., priority 1991, dated 1992)", "experiment": "general procedure: Boc solid-phase peptide synthesis; PAM Methionine, t-BOC resin (0.67 mmol/gm); BOC amino acid symmetric anhydrides (DCC); HOBZ for Asn", "settings": "cyclisation step, on linear precursor", "data": [{"substance": "Cyclo (D-Ala-L-Ala-Ser-Ser-Ser-Asn-Tyr-Met)", "values": [{"measurement": "cyclisation yield", "result": 31, "unit": "%"}]}]}
